We go through four molecules from patent publication US7341836B2, “Modified cyclic nucleotide gated ion channels” (The Regents of the University of Colorado, priority 2001, dated 2008).

For the data set, the system named is rat olfactory CNG channel α subunit. In words: Excised inside-out patch recordings, cyclic nucleotide dose-response of CNG channel constructs. It is filed as biochemical. To be noted: Hill coefficient. The method, then:
As described in greater detail herein, the effects of modifications to CNG channels were assessed using the Hill equation, I/Imax=[cNMP]^N/([cNMP]^N+K1/2^N), where I/Imax is the fraction of maximal current, cNMP represents cyclic nucleotide, K1/2 is the concentration that gives half-maximal current, and N is the Hill coefficient, an index of cooperativity. I/Imax^cGMP/Imax^cAMP is the current induced by saturating cGMP divided by the current induced by saturating cAMP. Data (mean±standard deviation of three experiments) were obtained from excised membrane patches using standard patch clamp techniques.
To assess the cyclic nucleotide sensitivity of different CNG channel constructs, excised, inside-out patch recordings were made at room temperature (20-21° C.) using an Axopatch-200A patch clamp amplifier (Axon Instruments Inc.). Pipettes were pulled from borosilicate glass and heat polished. Pipettes were lowered onto the cells and gigaohm seals were formed. Patches were excised by shearing cells from the pipette with a jet of liquid. Ionic currents were elicited by 250 ms pulses to membrane potentials of +50 and −50 mV from a holding potential of 0 mV. Current records were sampled at five times the filter setting and stored on an IBM compatible computer. Records were corrected for errors due to series resistance (pipette resistance was 4.1 ±0.1 MΩ). Both the pipette and bath solutions contained (mM): 130 NaCl, 2 HEPES, 0.02 EDTA, and 1 EGTA, pH 7.6. Cyclic nucleotide-induced currents were obtained from the difference between currents in the presence and absence of cyclic nucleotides. Dose response curves for cAMP and cGMP were obtained at +50 and −50 mV in the same patch. The effects of the modifications were assessed using the Hill equation, I/Imax=[cNMP]^N/([cNMP]^N+K1/2^N), where I/Imax is the fraction of maximal current, cNMP represents cyclic nucleotide, K1/2 is the concentration that gives half-maximal current, and N is the Hill coefficient, an index of cooperativity. K1/2 and N for cAMP were 36±5 μM, 10±2 μM, 1.0±0.3 μM, and […] for WT, E583M, C460/E583M, and Δ61-90/C460W/E583M channels, respectively (See, Rich et al., J. Gen. Physiol. [2001], supra).
The cyclic nucleotide sensitivity of the C460W/E583M CNG channel was assessed in excised, inside-out patches as known in the art (See, Rich et al. [2001], supra). K1/2 and N were 1.1±0.3 μM and 2.1±0.4 at +50 mV; and 1.0±0.3 μM and 2.0 ±0.3 at −50 mV (n=11). With these values, the cAMP concentration could be calculated from currents measured in perforated patch experiments (Rich et al. Proc. Natl. Acad. Sci. [2001], supra).

Residue numbers refer to the chain shown, from its start. Numbers in names are those of the source.

B1: Δ61-90/C460W/E583M: modified rat olfactory cyclic nucleotide-gated ion channel containing the Δ61-90/C460W/E583M mutation, SEQ ID NO:7 (protein, listed as Rattus norvegicus)
chain: MMTEKSNGVKSSPANNHNHHPPPSIKANGKDDHRAGSRPQSVAADDDTSPELQRLAEMDTPRPDSFLERFRGPELQTVTTHQGDDKGGKDGEGKGTKKKFELFVLDPAGDWYYRWLFVIAMPVLYNWCLLVARACFSDLQRNYFVVWLVLDYFSDTVYIADLIIRLRTGFLEQGLLVKDPKKLRDNYIHTLQFKLDVASIIPTDLIYFAVGIHSPEVRFNRLLHFARMFEFFDRTETRTSYPNIFRISNLVLYILVIIHWNACIYYVISKSIGFGVDTWVYPNITDPEYGYLAREYIYCLYWSTLTLTTIGETPPPVKDEEYLFVIFDFLIGVLIFATIVGNVGSMISNMNATRAEFQAKIDAVKHYMQFRKVSKDMEAKVIKWFDYLWTNKKTVDEREVLKNLPAKLRAEIAINVHLSTLKKVRIFQDWEAGLLVELVLKLRPQVFSPGDYICRKGDIGKEMYIIKEGKLAVVADDGVTQYALLSAGSCFGEISILNIKGSKMGNRRTANIRSLGYSDLFCLSKDDLMEAVTEYPDAKKVLEERGREILMKMGLLDENEVAASMEVDVQEKLEQLETNMDTLYTRFARLLAEYTGAQQKLKQRITVLETKMKQNHEDDYLSDGINTPEPTAAE
As to B1, where the note is “+50 mV”, the “N^cAMP” value was determined as 2.1 ± 0.1 and the “N^cGMP” value was 1.8 ± 0.2. Where the note is “−50 mV”, the “N^cAMP” value was 2.2 ± 0.1 and the “N^cGMP” value was 2.6 ± 0.2.

B2: WT: wild-type rat olfactory cyclic nucleotide gated channel α subunit, amino acid sequence SEQ ID NO:8 (protein, listed as Rattus norvegicus)
chain: MMTEKSNGVKSSPANNHNHHPPPSIKANGKDDHRAGSRPQSVAADDDTSPELQRLAEMDTPRRGRGGFQRIVRLVGVIRDWANKNFREEEPRPDSFLERFRGPELQTVTTHQGDDKGGKDGEGKGTKKKFELFVLDPAGDWYYRWLFVIAMPVLYNWCLLVARACFSDLQRNYFVVWLVLDYFSDTVYIADLIIRLRTGFLEQGLLVKDPKKLRDNYIHTLQFKLDVASIIPTDLIYFAVGIHSPEVRFNRLLHFARMFEFFDRTETRTSYPNIFRISNLVLYILVIIHWNACIYYVISKSIGFGVDTWVYPNITDPEYGYLAREYIYCLYWSTLTLTTIGETPPPVKDEEYLFVIFDFLIGVLIFATIVGNVGSMISNMNATRAEFQAKIDAVKHYMQFRKVSKDMEAKVIKWFDYLWTNKKTVDEREVLKNLPAKLRAEIAINVHLSTLKKVRIFQDCEAGLLVELVLKLRPQVFSPGDYICRKGDIGKEMYIIKEGKLAVVADDGVTQYALLSAGSCFGEISILNIKGSKMGNRRTANIRSLGYSDLFCLSKDDLMEAVTEYPDAKKVLEERGREILMKEGLLDENEVAASMEVDVQEKLEQLETNMDTLYTRFARLLAEYTGAQQKLKQRITVLETKMKQNHEDDYLSDGINTPEPTAAE
Regarding B2, where the note is “+50 mV”, the “N^cAMP” value amounted to 2.2 ± 0.1 and the “N^cGMP” value stood at 2.3 ± 0.1. Moreover, under “−50 mV”, the “N^cAMP” value stood at 2.2 ± 0.1 and the “N^cGMP” value was 2.5 ± 0.4.

B3: E583M: modified rat olfactory cyclic nucleotide-gated ion channel containing the E583M mutation, SEQ ID NO:5 (protein, listed as Rattus norvegicus)
chain: B2 chain with E583M
In the case of B3, the “N^cAMP” value stood at 2.4 ± 0.2 (+50 mV) and 2.2 ± 0.1 (−50 mV). In addition, the “N^cGMP” value by setting is: (+50 mV) 2.4 ± 0.12; (−50 mV) 1.9 ± 0.2.

B4: C460W/E583M: modified rat olfactory cyclic nucleotide-gated ion channel containing the C460W/E583M mutation, SEQ ID NO:6 (protein, listed as Rattus norvegicus)
chain: B2 chain with C460W, E583M
As to B4, for the setting “+50 mV”, the “N^cAMP” value was determined as 2.7 ± 0.2 and the “N^cGMP” value stood at 2.8 ± 0.3. Also, under “−50 mV”, the “N^cAMP” value is 2.2 ± 0.3 and the “N^cGMP” value is 2.7 ± 0.1.
